Results taken from patent US20230147129A1, “COMPOUNDS FOR USE IN THE TREATMENT OF SYNUCLEINOPATHIES” (SOM INNOVATION BIOTECH, S.A., priority 2020, published 2023).
Some entries share one result that the patent states for a list of compounds.

These compounds were tested against α-synuclein (Homo sapiens, UniProt P37840) (assay: Thioflavin-T assay of α-synuclein aggregation kinetics). Conditions: 100 μM compound, 3 independent experiments, FIG. 1A.
Assay type: biochemical
Protocol: Lyophilized α-synuclein was dissolved in PBS (phosphate buffer solution) to a final solution of 210 μM and filtered through a Millipore 0.22 μm filter. α-synuclein aggregation was performed in a 96-well plate (non-treated, black plastic), each well containing a Teflon® polyball ⅛″ diameter (Polysciences Europe GmbH, Eppelheim, Germany), 40 μM Thioflavin-T (Th-T), 70 μM α-synuclein, 100 μM of the compounds to be tested and PBS up to a final volume of 150 μL. The plates were fixed into an orbital culture shaker Max-Q 4000 (Thermo Scientific, Waltham, Mass., USA) to keep the incubation at 37° C., 100 rpm. Every, 2 h, the fluorescence intensity was measured using a Victor 3.0 Multilabel Reader (PerkinElmer, Waltham, Mass., USA), by exciting the mixtures with 430-450 nm filter and collecting the emission intensity with 480-510 nm filter. Each measurement was performed in triplicates.
Each plate contained three (3) α-synuclein controls in the absence of any of the tested compounds. The averaged Th-T fluorescence obtained for these wells at the end of the experience was normalized to 1, and the kinetic curves in the different wells re-scaled accordingly. After compiling the fluorescence signals, means and standard error of mean (SEM) were used to fit the aggregation kinetic with equation (1),
wherein k^b and k^a indicate the homogeneous nucleation rate constant and the secondary rate constant, accounting for fibril elongation and secondary nucleation, respectively.
Re-scaled curves were used to compare the controls with the effect of the compounds and to ensure that the controls were reproducible between different experiments.

Reduction of Th-T-positive species, more than 50%:
C[C@@H](NCCCc1cccc(C(F)(F)F)c1)c1cccc2ccccc12 [Cinacalcet, N-[(1R)-1-(1-naphthyl)ethyl]-3-[3-(trifluoromethyl)phenyl]propan-1-amine]
CCCOc1ccc2[nH]c(NC(=O)OC)nc2c1 [Oxibendazole, Methyl N-(6-propoxy-1H-benzimidazol-2-yl) carbamate]
N=C(NN=Cc1ccc(Cl)cc1)NN=Cc1ccc(Cl)cc1 [Robenidine, 1,2-bis[(4-chlorophenyl)methylideneamino]guanidine]
